From PubChem BioAssay AID493014 (National Center for Advancing Translational Sciences (NCATS), 2011)
The list shows a part of the results. Further columns of the screen follow, without active or inactive calls. The list favours compounds with an active or inconclusive main result. The note in brackets gives the kind of curve behind each potency; many fits are weak.

Test: qHTS Assay to Find Inhibitors of Chronic Active B-Cell Receptor Signaling
Details: ABC-DLBCL IkBa-CBG/CBR reporter, luminescence ratio (green luciferase fused to IkBa over red control in TMD8 lymphoma cells), 4 h
Summary of the method: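 TMD8 ABC-DLBCL cells carrying doxycycline-inducible green luciferase fused to IkappaBalpha plus unfused red luciferase were exposed to compounds (up to 46 uM) for 4 hrs at 37C. Activity came from the overlap-corrected green/red luminescence ratio.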

[1] = measured here: CBR red luminescence, cell number
[2] = measured here: IkBa-CBG green luminescence

SMILES | AC50 [1] | AC50 [2]
O=C1NC2(C=Cc3c(ccc4ccccc34)O2)Oc2ccccc21 (configuration not stated) | 4.47 µM [rising, partial curve, poor fit] | 
CCn1c2ccccc2c2cc(NC(=O)c3cc(OC)cc(OC)c3)ccc21 | 3.26 µM [rising, full curve, poor fit] | 3.26 µM [falling, full curve]
Cc1nn(Cc2ccc(C(=O)NN)o2)c(C)c1Cl | 10 µM [falling, partial curve] | 
CC(c1ccccc1)N1CCC(CNC(=S)Nc2cccc(Cl)c2)C1 (configuration not stated) | 20 µM [falling, single point] | 
O=C(CSc1nnc(Cc2ccccc2)n1Cc1ccco1)NC1CCCC1 | 5.62 µM [rising, single point] | 
Cc1cc(Cl)ccc1NC(=S)Nc1ccccn1 | 7.31 µM [rising, full curve] | 
O=C(N/N=C/C=C/c1ccccc1)c1n[nH]c2c1CCC2 | 29.1 µM [falling, single point] | 
O=C(O)c1cccc(Cn2c(Cl)c(/C=N/NC(=O)c3cccc(O)c3)sc2=O)c1 | 0.501 µM [falling, partial curve, poor fit] | 
CSc1nc2ccc(S(=O)(=O)N3CCCCC3)cc2s1 | 6.51 µM [rising, full curve, poor fit] | 
COc1cccc(OCc2cc(C(=O)N3CCN(c4ccccc4O)CC3)no2)c1 | 17.8 µM [falling, single point] | 
Clc1ccc(-c2nnc3sc(-c4ccc(Br)o4)nn23)cc1 | 13 µM [falling, partial curve, poor fit] | 
CCc1ccc(OCCCC(=O)Nc2ccc(S(N)(=O)=O)cc2)cc1 | 35.5 µM [rising, partial curve, poor fit] | 
CC(=O)NS(=O)(=O)c1ccc(N=c2ssc3c2-c2cc(C)ccc2NC3(C)C)cc1 | 16.4 µM [falling, partial curve, poor fit] | 20.6 µM [rising, partial curve, poor fit]
CN1CCN(CCCNC(=O)c2ccc(Cn3c(=S)[nH]c4ccc(Br)cc4c3=O)cc2)CC1 | 0.178 µM [falling, full curve, poor fit] | 
Cc1ccc(C(=O)O/N=C2\CCSc3ccc(C)cc32)cc1 | 8.2 µM [rising, partial curve, poor fit] | 
CCCSc1cc(N)cc([N+](=O)[O-])c1 | 0.501 µM [rising, full curve, poor fit] | 
O=C(CSc1nc(=O)n(CCN2CCOCC2)c2c1CCC2)Nc1ccc(OC(F)(F)F)cc1 | 6.51 µM [falling, full curve, poor fit] | 
Cc1ccccc1C(=O)Nc1ccccc1C(=O)NCC(C)C | 12.6 µM [falling, partial curve, poor fit] | 
Cc1ccc2nc(NC(=O)CCNS(=O)(=O)c3cccs3)sc2c1 | 3.98 µM [falling, partial curve, poor fit] | 
CCN1CCN(c2cc(C)c3cc(NC(=S)N(C)Cc4ccccc4)ccc3n2)CC1 | 35.5 µM [falling, single point] | 
CC(=O)Nc1ccc(OCC=C(Cl)Cl)cc1 | 4.61 µM [rising, full curve, poor fit] | 
COc1ccc(N2C(=O)C(F)(F)C2c2ccccc2F)cc1 (configuration not stated) | 35.5 µM [falling, single point] | 

SMILES | AC50 [1] | AC50 [2]
COc1ccc(-c2cc(-c3ccccc3O)[nH]n2)cc1OC | 10 µM [falling, partial curve] | 
Cc1cc(C)cc(Cn2ncc(Cl)c(Cl)c2=O)c1 | 11.6 µM [falling, partial curve] | 
CC(C)Oc1ccc(C(CCNCc2ccc(O)cc2)c2ccccc2)cc1 (configuration not stated) | 6.31 µM [rising, single point] | 
COc1ccccc1OCCSc1nnc(C)n1-c1ccccc1 | 0.0291 µM [falling, full curve, poor fit] | 
CCN1C(=NCC(C)C)N[C@@H](c2ccccc2)[C@H](C(=O)OC)[C@H]1C | 0.794 µM [falling, partial curve] | 
O=C(N/N=C/c1ccc(O)cc1)c1csc2c1CCCC2 | 9.2 µM [falling, partial curve] | 
Cc1ccc(/C=C2\SC(=S)N(CC3CCCO3)C2=O)o1 (configuration not stated) | 35.5 µM [rising, single point] | 
Cc1cccc(Nc2nc(-c3ccc(O)cc3O)cs2)n1 | 11.2 µM [falling, partial curve, poor fit] | 
O=C(CSCC(=O)Nc1nccs1)Nc1ccccc1 | 12.6 µM [falling, partial curve] | 
Cc1ccc(C(C(=O)NC2CCCC2)N(Cc2ccco2)C(=O)CCC(=O)Nc2ccccn2)cc1 (configuration not stated) | 22.4 µM [falling, single point] | 
Cc1ccc(C(=O)CCS(=O)(=O)c2ccc(F)cc2)cc1 | 25.1 µM [falling, single point] | 
CCC(=O)NC(c1ccco1)c1cc(Br)c2cccnc2c1O (configuration not stated) | 29.1 µM [falling, single point] | 
CN(C)c1ccc(C(=O)C(=O)c2ccccc2)cc1 | 6.31 µM [rising, single point] | 
Cc1cccc2c1OCC/C2=N\NC(=O)COc1ccccc1 | 1.12 µM [rising, full curve, poor fit] | 
Fc1cccc(-c2cc3nc4c(c(N5CCC6(CC5)OCCO6)n3n2)CCCC4)c1 | 6.51 µM [rising, single point] | 
COc1ccc(-c2n[nH]c(=S)n2Cc2ccccc2)cc1OC | 0.1 µM [rising, full curve, poor fit] | 
CCOc1ccc(NCc2cccn2-c2nnc(N3CCC(C(=O)NCCCN4CCCCC4CC)CC3)s2)cc1 (configuration not stated) | 14.1 µM [falling, partial curve] | 
COc1cccc(-c2cc(C(=O)N3CCN(C(=O)c4ccco4)CC3)[nH]n2)c1 | 8.91 µM [falling, partial curve, poor fit] | 
CN(CC(=O)Nc1ccc(F)cc1)C(=O)c1cc2c(s1)CCCCC2 | 16.4 µM [falling, single point] | 
Cc1oc(-c2ccc(F)cc2)nc1CN(Cc1ccccn1)CC1CCCO1 (configuration not stated) | 5.62 µM [rising, single point] | 
Cc1nn(-c2ccccc2)c(Cl)c1C(=O)NCC1CCCO1 (configuration not stated) | 4.61 µM [rising, partial curve, poor fit] | 
CN(C)c1ccc(-c2nc3n(n2)C(c2cccnc2)C2=C(CC(C)(C)CC2=O)N3)cc1 (configuration not stated) | 7.94 µM [rising, partial curve] | 

SMILES | AC50 [1] | AC50 [2]
COC(=O)Nc1nc(-c2ccccc2)c(C(=O)c2ccccc2)s1 | 16.4 µM [rising, partial curve, poor fit] | 
CCn1c(SCC(=O)c2ccc(Cl)cc2)nnc1-c1cccs1 | 29.1 µM [falling, single point] | 
COc1ccc(NC(=O)c2ccc(-n3nc(C)c[n+]3[O-])cc2)cc1 | 25.9 µM [falling, single point] | 
CC(C)NC(=O)c1cc2n(n1)C(C(F)(F)F)CC(c1ccco1)N2 (configuration not stated) | 17.8 µM [rising, partial curve, poor fit] | 
CCOCCCn1c(C)nc2c(c1=O)c1nc3ccccc3nc1n2CCC1=CCCCC1 | 6.31 µM [falling, single point] | 
O=C(C(Cc1ccccc1)n1cccc1)N1CCCCCC1 (configuration not stated) | 14.6 µM [falling, single point] | 
CC(C)CNC(=O)COC(=O)CCC(=O)c1ccc(F)cc1 | 29.1 µM [rising, single point] | 
Cc1ccc(NC(=S)N2CCC(NC(=O)c3ccc(C)cc3)CC2)cc1 | 6.31 µM [rising, partial curve, poor fit] | 
COCCSc1nc2sc3c(c2c(=O)n1-c1ccccc1)CCN(C)C3 | 8.2 µM [rising, partial curve, poor fit] | 
COc1ccc(-c2cc(C(=O)Nc3c(C)nn(Cc4ccccc4Cl)c3C)no2)cc1 | 0.731 µM [rising, partial curve, poor fit] | 
CCN(CC)CCCNC(=S)N1CCN(c2nc(-c3ccccc3)cs2)CC1 | 35.5 µM [falling, single point] | 
C/C(CC(=O)Nc1ccc(N(C)C)cc1)=N\NC(=O)c1ccccc1O | 1.78 µM [falling, full curve] | 
COc1ccc(S(=O)(=O)N2CCN=C2SCc2cccnc2)cc1 | 15.8 µM [rising, single point] | 
CCc1nnc(NC(=O)c2ccc3ccccc3n2)s1 | 8.91 µM [falling, partial curve] | 3.55 µM [falling, full curve, poor fit]
Cc1ccc(NC(=O)c2ccc(S(=O)(=O)N3CCC(C)CC3)cc2)cc1 | 11.6 µM [rising, partial curve] | 
CCOC(=O)CC(=O)CSc1nc(N)c(C#N)c(-c2ccc(Cl)cc2)c1C#N | 10 µM [falling, partial curve] | 
Cc1onc(-c2ccccc2Cl)c1C(=O)N(Cc1ccccc1)C(C)C | 35.5 µM [falling, single point] | 
O=C(Oc1ccccc1C(=S)N1CCOCC1)c1ccc([N+](=O)[O-])cc1[N+](=O)[O-] | 5.62 µM [falling, full curve] | 
O=C(OCc1c(-c2ccccc2)ncc2ccccc12)c1ccc(Cl)cc1Cl | 1.84 µM [falling, full curve] | 
COc1ccc(OC)c(NC(=O)C2CCN(S(=O)(=O)c3c(C)noc3C)CC2)c1 | 32.6 µM [rising, partial curve, poor fit] | 
